Measured values taken from article PMC5561112, “Thermodynamic and Kinetic Analyses of Iron Response Element (IRE)-mRNA Binding to Iron Regulatory Protein, IRP1”.

Target: T1, IRP1 (iron regulatory protein 1) (rabbit) (UniProt Q01059)
T1 sequence (looked up, limits assumed): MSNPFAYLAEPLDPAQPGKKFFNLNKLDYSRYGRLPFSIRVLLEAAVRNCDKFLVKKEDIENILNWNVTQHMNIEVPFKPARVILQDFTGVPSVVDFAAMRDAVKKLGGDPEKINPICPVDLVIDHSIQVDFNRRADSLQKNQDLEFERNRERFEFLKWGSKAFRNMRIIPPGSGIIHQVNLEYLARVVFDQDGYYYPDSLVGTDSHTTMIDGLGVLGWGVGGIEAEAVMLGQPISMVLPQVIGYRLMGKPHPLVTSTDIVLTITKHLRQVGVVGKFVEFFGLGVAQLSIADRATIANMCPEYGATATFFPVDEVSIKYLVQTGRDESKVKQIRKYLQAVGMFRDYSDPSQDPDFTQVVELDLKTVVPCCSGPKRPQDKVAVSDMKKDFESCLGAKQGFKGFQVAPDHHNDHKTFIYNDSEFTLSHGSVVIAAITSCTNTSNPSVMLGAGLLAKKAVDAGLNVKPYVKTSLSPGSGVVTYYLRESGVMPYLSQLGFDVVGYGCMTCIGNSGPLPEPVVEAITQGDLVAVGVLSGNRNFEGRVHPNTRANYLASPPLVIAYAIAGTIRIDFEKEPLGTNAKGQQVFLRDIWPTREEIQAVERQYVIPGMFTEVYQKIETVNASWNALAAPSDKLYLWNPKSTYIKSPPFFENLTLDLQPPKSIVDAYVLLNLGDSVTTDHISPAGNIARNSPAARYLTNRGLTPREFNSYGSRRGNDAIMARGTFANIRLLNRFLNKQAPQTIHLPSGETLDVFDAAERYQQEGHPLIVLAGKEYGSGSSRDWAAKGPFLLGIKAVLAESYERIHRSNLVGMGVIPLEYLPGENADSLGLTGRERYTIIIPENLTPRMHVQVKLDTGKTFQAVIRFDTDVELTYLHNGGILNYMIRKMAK
Assay: fluorescence anisotropy
Conditions: 50 µM Mn2+, 40 mM HEPES pH 7.2, 100 mM KCl, 5-30 °C, labeled RNA 50 nM or 100 nM (Methods), recombinant protein, label: 5' fluorescein

“GUUCUUGCUUCAACAGUGUUUGAACGGAAC [FRT IRE-RNA (ferritin IRE)]” showed a Kd (5 °C) of 83.3 nM, a Kd (10 °C) of 102 nM and a Kd (15 °C) of 112 nM. The Kd (20 °C) was 137 nM, the Kd (25 °C) was 174 nM and the Kd (30 °C) was 193 nM.

For “CCUCAUCUUUGUCAGUGCACAAAAUGGCG [ACO2 IRE-RNA (mitochondrial aconitase IRE)]”, the Kd (5 °C) was 535 nM, the Kd (10 °C) was 593 nM and the Kd (15 °C) was 648 nM. For the same sequence, the Kd (20 °C) was 701 nM, the Kd (25 °C) was 750 nM and the Kd (30 °C) was 801 nM.

The exact form of at least one protein or probe is not confirmed. Tags and fusion partners may be left off the protein sequences shown.
